PubChem BioAssay AID504467 (National Center for Advancing Translational Sciences (NCATS), 2011)
Screen size: about 330,000 compounds; about 7,700 (2.3%) were called active. The inconclusive results got no clear call from the source; some entries with a clear call stand among them for comparison. The call rests on the fitted dose curve; in most records, active means well fitted inhibition curve with a large enough effect; inconclusive means small, poorly fitted or top-dose-only effect, or effect the other way; inactive means flat fitted curve, though single readings scatter. Potencies of inconclusive entries are doubtful fits and often do not repeat.

Experiment: qHTS screen for small molecules that inhibit ELG1-dependent DNA repair in human embryonic kidney (HEK293T) cells expressing luciferase-tagged ELG1; further: nearly all actives have a fitted effect of over 55% in size
Settings: HEK293T ELG1-luciferase reporter, luminescence, 16 h, DNA damage induced by 5-fluorouridine; activity change, negative = inhibition: at 46.1 µM (top of the series)
How it was run: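 5-Fluorouridine DNA damage + compound/DMSO, 2,000 cells/well, 16 h, 37 °C/5% CO2. ONE-Glo, 30 min RT, luminescence. Readout = decrease in reporter signal.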
On the % scale 0 is the no-effect control and ±100 the full control effect; potency means the concentration at half of the fitted maximal effect.

SMILES	Potency	activity change, negative = inhibition
CCN(CCNC(=O)CS(=O)(=O)Cc1nc(-c2cccc(OC)c2)oc1C)c1ccccc1	active: 18.4 µM	–
COc1ccccc1-c1nc(C#N)c(N2CCC(Cc3ccccc3)CC2)o1	–	inactive: -16.2%
O=c1[nH]c2ccccc2nc1/C=C(\O)C1CC1	–	inactive: 14.2%
COc1ccc(/C=N/NC(=O)c2ccncc2)cc1CN1CCOCC1	–	inactive: -1.47%
CCc1cc(=O)oc2cc(OCC(=O)N3CCC[C@H]3C(=O)O)ccc12	–	inactive: 29.8%
CCN1C(=O)/C(=C2\SC(N3CCOCC3)=NC2=O)c2ccccc21	inconclusive: 16.4 µM [activator, partial curve, poor fit]	–
S=C(Nc1ccc(Cl)cc1Cl)N1CCCCC1	inconclusive: 14.6 µM [activator, partial curve]	–
CN1/C(=C\P(=O)(N(C)C)N(C)C)C(C)(C)c2ccccc21	–	inactive: -0.988%
CCOc1ccccc1NC(=O)CN1CCC(C(=O)c2ccc(OC)cc2)CC1	inconclusive: 29.1 µM [inhibitor, single point]	–
C/[N+]([O-])=C\c1coc2ccccc2c1=O	–	inactive: 18.5%
CC(=O)Nc1ccc(NC(=O)C(C)OC(=O)CCCN2C(=O)c3cccc4cccc(c34)C2=O)cc1 (stereo not drawn)	inconclusive: 6.51 µM [activator, single point]	–
N#Cc1cc(NC(=O)c2ccc(F)cc2)c(=O)n2c1[nH]c1ccccc12	active: 6.51 µM	–
CCn1cc(S(=O)(=O)NCc2ccc(OC)cc2)cn1	–	inactive: -4.32%
CCOC(=O)c1c(C)[nH]c(C)c1C(=O)COc1ncnc2cc([N+](=O)[O-])ccc12	inconclusive: 20.6 µM [inhibitor, partial curve]	–
COc1cc(/C=C2\SC(=O)N(Cc3ccc(Cl)cc3)C2=O)cc([N+](=O)[O-])c1O	inconclusive: 29.1 µM [inhibitor, single point]	–
COC(=O)c1ccc(C(=O)OC)c(NC(=O)CN(C)Cc2ccccc2)c1	inconclusive: 23.1 µM [inhibitor, partial curve]	–
COc1ccc2[nH]c(C)c(CCNC(=S)Nc3cccc(C)c3)c2c1	inconclusive: 18.4 µM [inhibitor, single point]	–
O=[N+]([O-])c1cccc(N=NN(CCO)c2cccc([N+](=O)[O-])c2)c1	–	inactive: -28.2%
COc1ccc(S(=O)(=O)N2CCOCC2)cc1NC(=O)CSc1ccc(F)cc1	inconclusive: 23.1 µM [inhibitor, single point]	–
CCC(=O)c1ccc(OCC(O)Cn2c(C)nc3ccccc32)cc1 (stereo not drawn)	inconclusive: 5.17 µM [inhibitor, partial curve]	–
CCOC(=O)c1ccc(Oc2cn[nH]c2-c2ccc(O)cc2O)cc1	inconclusive: 5.17 µM [inhibitor, full curve, poor fit]	–
COc1ccc2c(c1)OC(=O)CC2c1cc(OC)c(OC)c(OC)c1 (stereo not drawn)	–	inactive: 16.9%
CCCN(CC(=O)Nc1ccc(F)c(F)c1F)C(=O)CCc1nc2ccccc2c(=O)[nH]1	–	inactive: 3.32%

Part of the list above, as labelled records.
CC(=O)Nc1ccc(NC(=O)C(C)OC(=O)CCCN2C(=O)c3cccc4cccc(c34)C2=O)cc1 (stereo not drawn)
  Potency: inconclusive: 6.51 µM [activator, single point]
N#Cc1cc(NC(=O)c2ccc(F)cc2)c(=O)n2c1[nH]c1ccccc12
  Potency: active: 6.51 µM
CCn1cc(S(=O)(=O)NCc2ccc(OC)cc2)cn1
  activity change, negative = inhibition: inactive: -4.32%
CCOC(=O)c1c(C)[nH]c(C)c1C(=O)COc1ncnc2cc([N+](=O)[O-])ccc12
  Potency: inconclusive: 20.6 µM [inhibitor, partial curve]

Next results:

SMILES	Potency	activity change, negative = inhibition
O=C(CCNc1n[nH]c(=O)[nH]c1=O)N/N=C/c1ccc(C(F)(F)F)cc1	–	inactive: -10.4%
CCCn1c(N2CCN(CC(=O)c3c(C)n(C)c4ccccc34)CC2)nc2c1c(=O)[nH]c(=O)n2C	active: 7.31 µM	–
COc1ccc(/C=N/NC(=O)CCn2cnc(-c3ccccc3)c2-c2ccccc2)cc1OC	inconclusive: 8.2 µM [inhibitor, partial curve]	–
N#Cc1ccc(NC(=O)Cn2c3[n+](c4ccc(C(F)(F)F)cc42)CCCCC3)cc1	–	inactive: 5.49%
Brc1ccc(OCc2ccccc2)c(CNCc2ccncc2)c1	inconclusive: 18.4 µM [inhibitor, single point]	–
COc1ccc(Nc2cc(C(=O)N3CCc4ccccc4C3)c3ccccc3n2)c(OC)c1	active: 20.6 µM	–
O=C(c1ccccc1Br)N1CCN(c2ccccc2)CC1	–	inactive: -4.03%
O=S(=O)(Nc1nc2ccccc2nc1Cl)c1ccc(F)cc1	inconclusive: 23.1 µM [inhibitor, single point]	–
O=C1CS(=O)(=O)N(Cc2ccccc2F)c2ccc(Br)cc21	–	inactive: 9.41%
O=C(N/N=C\c1cn[nH]c1-c1ccc(Cl)cc1)c1cccs1	–	inactive: 14.6%
COc1ccc(/C=C2/SC(=O)N(CCC(=O)Nc3ccccc3)C2=O)cc1OC	inconclusive: 13 µM [activator, partial curve]	–
CC(C)(C)c1cc(C(=O)N/N=C/c2ccc(-c3ccccc3[N+](=O)[O-])o2)n[nH]1	inconclusive: 0.73 µM [inhibitor, full curve, poor fit]	–
CCOC(=O)N1CCC(NC(=O)CS(=O)(=O)Cc2nc(-c3ccccc3C)oc2C)CC1	inconclusive: 20.6 µM [inhibitor, partial curve, poor fit]	–
COC(=O)C1(C)CC1(c1ccccc1)c1ccccc1 (stereo not drawn)	inconclusive: 0.231 µM [inhibitor, single point]	–
CCNc1nc(NCC)nc(SCCOc2ccc(C)cc2)n1	–	inactive: 29.4%
CCOC(=O)C1=C(Nc2ccc(Br)cc2)CC(C)(O)C(C(=O)OCC)C1c1ccccc1 (stereo not drawn)	inconclusive: 4.11 µM [inhibitor, single point]	–
Cc1cc(C)n(-c2ccc(NC(=O)C3CCCCN3Cc3cccc4c3OCO4)cc2)n1 (stereo not drawn)	inconclusive: 29.1 µM [inhibitor, single point]	–
Cc1occc1C(=O)Nc1cc(C(C)(C)C)on1	inconclusive: 8.91 µM [activator, partial curve]	–
O=C(CCC(=O)N1CCN(S(=O)(=O)c2ccccc2)CC1)c1ccc(Br)cc1	inconclusive: 32.6 µM [inhibitor, single point]	–
Brc1ccc(C=Nc2ccc(Nc3ccccc3)cc2)s1	inconclusive: 3.26 µM [inhibitor, partial curve, poor fit]	–
NC(=O)C1CC(=O)N(c2ccc(OCc3ccc(Cl)cc3)cc2)C1 (stereo not drawn)	inconclusive: 8.2 µM [activator, partial curve]	–
COc1cc(/C=C/C(=O)NC(C)C)ccc1OCc1ccccc1	inconclusive: 10.3 µM [inhibitor, partial curve, poor fit]	–
O=C1C=C(c2ccc3ncccc3c2)C[C@@H](c2ccc(Cl)cc2)C1	inconclusive: 29.1 µM [inhibitor, single point]	–

SMILES	Potency	activity change, negative = inhibition
O=C(c1cc(Sc2ccc(Cl)cc2)nc2ccccc12)N1CCN(c2ccccn2)CC1	inconclusive: 18.3 µM [inhibitor, single point]	–
OC(COC(c1ccccc1)c1ccccc1)CN1CCN(c2ccccn2)CC1 (stereo not drawn)	inconclusive: 5.8 µM [inhibitor, partial curve, poor fit]	–
CSC(=NNC(=O)c1ccc(O)cc1)SC	inconclusive: 29.1 µM [activator, single point]	–
Cn1ccnc1Sc1cc(NCCCO)c([N+](=O)[O-])c2nonc12	inconclusive: 18.3 µM [activator, partial curve, poor fit]	–
O=C(Nc1nc2ccccc2n1CCN1CCOCC1)c1ccc(Cn2cc([N+](=O)[O-])cn2)o1	inconclusive: 6.51 µM [inhibitor, partial curve, poor fit]	–
CCOc1ccccc1N1CCN(C(=O)c2cc(S(=O)(=O)N(C)C)ccc2N2CCCC2)CC1	inconclusive: 25.9 µM [inhibitor, single point]	–
COc1ccc2c(C(=O)c3ccc(C)cc3)n(Cc3ccc(C(N)=O)cc3)[n+]([O-])c2c1	inconclusive: 2.82 µM [activator, partial curve]	–
CCc1ccc(N/C(N)=N/c2nc(CSc3ccccn3)cc(=O)[nH]2)cc1	active: 23.1 µM	–
COc1ccc(OC)c(S(=O)(=O)N2Cc3ccccc3CC2C(=O)Nc2nccs2)c1 (stereo not drawn)	inconclusive: 5.8 µM [activator, single point]	–
O=C(CCN1C(=O)/C(=C/c2ccccc2Cl)SC1=S)N1CCOCC1	inconclusive: 29.1 µM [inhibitor, single point]	–
Cc1ccc(CN/C=C/C(=O)c2ccc(Br)cc2)cc1	inconclusive: 16.4 µM [activator, partial curve]	–
COC(=O)c1cc(NC(=O)c2cc(-c3ccccc3Cl)oc2C(F)(F)F)ccc1N1CCOCC1	inconclusive: 23.1 µM [inhibitor, single point]	–
CCN(CC)S(=O)(=O)c1cc(NC(=O)COc2ccc(C#N)cc2OC)ccc1C	active: 13 µM	–
Cc1ccc(C)c(Oc2cc(NC(=O)CCCn3nc(C)c([N+](=O)[O-])c3C)cc([N+](=O)[O-])c2)c1	inconclusive: 29.1 µM [inhibitor, single point]	–
Cc1nn(C(C)C(=O)N2CCCC2)c(=O)c2nn(-c3ccccc3)c(C)c12 (stereo not drawn)	inconclusive: 13 µM [activator, partial curve, poor fit]	–
COc1ccc(C(=O)NC(C)CCn2cccn2)cc1OC1CCN(C(C)C)CC1 (stereo not drawn)	–	inactive: 4.3%
CCOc1ccc(NCc2cc3cc(OC)ccc3[nH]c2=O)cc1	inconclusive: 13 µM [inhibitor, partial curve, poor fit]	–
CC(Sc1nnc(C2CC2)n1C1CC1)C(=O)c1ccc(Br)cc1 (stereo not drawn)	–	inactive: 0.631%
NC(=O)c1nsnc1-c1ccccc1O	–	inactive: 9.71%
COc1ccc(Br)cc1CN(C)C(=O)CNC(=O)c1ccc2ccccc2c1	inconclusive: 23.1 µM [inhibitor, single point]	–
COc1ccc(/C=N/NC(=O)c2sccc2OCc2ccc(F)cc2)cc1OC	inconclusive: 14.6 µM [inhibitor, partial curve]	–
CCOC(=O)COn1c(=O)c(-c2ccc(OC)cc2)[n+]([O-])c2ccccc21	inconclusive: 29.1 µM [activator, single point]	–
